Results are given in words; binding and its absence hold for the method and conditions named. Binding seen in cells or lysates may run through a third protein. Some entries that bind do so weakly or less than the wild type.
Target: T1, APBB1 (amyloid β precursor protein binding family B member 1) (human (endogenous in human SSC line)) (UniProt O00213)
T1 sequence: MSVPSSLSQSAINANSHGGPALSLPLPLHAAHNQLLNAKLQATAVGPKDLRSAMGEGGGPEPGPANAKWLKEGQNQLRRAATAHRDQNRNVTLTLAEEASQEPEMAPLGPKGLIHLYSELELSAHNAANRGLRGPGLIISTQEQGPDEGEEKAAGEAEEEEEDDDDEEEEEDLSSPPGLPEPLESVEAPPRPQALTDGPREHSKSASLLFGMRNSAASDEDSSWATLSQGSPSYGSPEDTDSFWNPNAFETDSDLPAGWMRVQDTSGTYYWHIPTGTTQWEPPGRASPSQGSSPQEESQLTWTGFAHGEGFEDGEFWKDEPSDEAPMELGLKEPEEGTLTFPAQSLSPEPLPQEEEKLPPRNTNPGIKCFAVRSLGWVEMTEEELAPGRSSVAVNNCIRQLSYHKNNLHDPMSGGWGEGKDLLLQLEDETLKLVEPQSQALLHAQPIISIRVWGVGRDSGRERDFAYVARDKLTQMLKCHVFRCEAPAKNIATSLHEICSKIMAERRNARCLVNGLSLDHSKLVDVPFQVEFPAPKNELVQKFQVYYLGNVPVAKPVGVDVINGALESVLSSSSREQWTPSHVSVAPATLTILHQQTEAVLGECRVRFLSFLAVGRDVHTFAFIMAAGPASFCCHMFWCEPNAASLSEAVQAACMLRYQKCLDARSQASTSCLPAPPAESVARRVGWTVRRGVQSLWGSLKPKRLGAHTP
Assay: co-IP; human SSC line lysed in RIPA buffer; lysate incubated with primary antibody or control rabbit IgG overnight at 4 °C, protein G magnetic beads 2 h at 4 °C, Western blot; which protein was precipitated not given

The chains behind the UniProt entries cited, without tags or fusion partners.
UniProt Q92993: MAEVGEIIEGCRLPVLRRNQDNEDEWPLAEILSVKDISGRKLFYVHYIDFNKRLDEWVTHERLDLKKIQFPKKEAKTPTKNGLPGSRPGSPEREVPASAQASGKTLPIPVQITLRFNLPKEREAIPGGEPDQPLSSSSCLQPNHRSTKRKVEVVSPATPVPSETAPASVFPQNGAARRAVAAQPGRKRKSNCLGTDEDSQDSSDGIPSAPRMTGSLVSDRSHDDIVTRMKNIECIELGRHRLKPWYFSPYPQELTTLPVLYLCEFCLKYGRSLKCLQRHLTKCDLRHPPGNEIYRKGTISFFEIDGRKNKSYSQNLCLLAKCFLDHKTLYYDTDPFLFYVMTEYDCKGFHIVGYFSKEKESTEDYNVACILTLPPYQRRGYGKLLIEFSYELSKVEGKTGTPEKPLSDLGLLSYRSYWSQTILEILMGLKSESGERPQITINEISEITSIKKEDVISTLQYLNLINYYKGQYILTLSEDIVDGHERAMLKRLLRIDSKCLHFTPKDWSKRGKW

## KAT5 (from UniProt Q92993 1-513)
  binding: binds

From paper PMC11948500
